{"source": "PubChem BioAssay AID504808 – Drosophila RNAi Screening Center | 2011", "test": "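Genes whose loss lifts activity of an E2F-responsive reporter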 (primary screen)", "cells": "Drosophila S2 cells", "reagents": "long dsRNA against Drosophila genes", "detection": "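Firefly luciferase driven by E2F sites, normalised to Renilla luciferase on the same minimal promoter, measured by plate reader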", "direction": "E2F firefly: higher = more E2F reporter activity; Renilla normaliser: higher = more normaliser reporter signal", "call rule": "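Called active if the normalised E2F reporter went up by over 50%; the cutoff is arbitrary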", "note": "The screen tested about 21,000 reagents; below is a random part of those with a known target gene and a result. Of all reagents, 18 (0.084%) were called active. 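Raw counts without plate normalisation, one of two replicates; the ratio scores behind the calls were not deposited.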 Unmarked entries are inactive. Not given: the amount of reagent, the time to read-out."}
{"Target gene": "CG10444 (GeneID 37294)", "dsRNA": "DRSC05990", "E2F firefly, rep 1": 62298, "Renilla normaliser, rep 1": 3533}
{"Target gene": "nkt (GeneID 39264)", "dsRNA": "DRSC10144", "E2F firefly, rep 1": 1.08e5, "Renilla normaliser, rep 1": 6211}
{"Target gene": "CG1677 (GeneID 31662)", "dsRNA": "DRSC18116", "E2F firefly, rep 1": 1.27e5, "Renilla normaliser, rep 1": 6006}
{"Target gene": "arg (GeneID 46717)", "dsRNA": "DRSC18737", "E2F firefly, rep 1": 1964, "Renilla normaliser, rep 1": 808}
{"Target gene": "Dscam4 (GeneID 2769008)", "dsRNA": "DRSC08911", "E2F firefly, rep 1": 1.44e5, "Renilla normaliser, rep 1": 4526}
{"Target gene": "Dscam4 (GeneID 2769008)", "dsRNA": "DRSC08913", "E2F firefly, rep 1": 1.34e5, "Renilla normaliser, rep 1": 4642}
{"Target gene": "Dscam4 (GeneID 2769008)", "dsRNA": "DRSC10031", "E2F firefly, rep 1": 91520, "Renilla normaliser, rep 1": 3903}
{"Target gene": "Dscam4 (GeneID 2769008)", "dsRNA": "DRSC10329", "E2F firefly, rep 1": 74021, "Renilla normaliser, rep 1": 3891}
{"Target gene": "Dscam4 (GeneID 2769008)", "dsRNA": "DRSC10765", "E2F firefly, rep 1": 97910, "Renilla normaliser, rep 1": 3749}
{"Target gene": "Spn42Dd (GeneID 49808)", "dsRNA": "DRSC05024", "E2F firefly, rep 1": 1.31e5, "Renilla normaliser, rep 1": 4383}
{"Target gene": "apn (GeneID 41631)", "dsRNA": "DRSC15124", "E2F firefly, rep 1": 1.20e5, "Renilla normaliser, rep 1": 6441}
{"Target gene": "brk (GeneID 31665)", "dsRNA": "DRSC18745", "E2F firefly, rep 1": 1.07e5, "Renilla normaliser, rep 1": 5745}
{"Target gene": "crq (GeneID 33219)", "dsRNA": "DRSC00810", "E2F firefly, rep 1": 1.72e5, "Renilla normaliser, rep 1": 6330}
{"Target gene": "ed (GeneID 33619)", "dsRNA": "DRSC00350", "E2F firefly, rep 1": 91982, "Renilla normaliser, rep 1": 4052}
{"Target gene": "ed (GeneID 33619)", "dsRNA": "DRSC00438", "E2F firefly, rep 1": 1.40e5, "Renilla normaliser, rep 1": 5496}
{"Target gene": "ed (GeneID 33619)", "dsRNA": "DRSC00439", "E2F firefly, rep 1": 1.53e5, "Renilla normaliser, rep 1": 4577}
{"Target gene": "ed (GeneID 33619)", "dsRNA": "DRSC00478", "E2F firefly, rep 1": 1.48e5, "Renilla normaliser, rep 1": 4964}
{"Target gene": "CG12723 (GeneID 32271)", "dsRNA": "DRSC19499", "E2F firefly, rep 1": 70165, "Renilla normaliser, rep 1": 5257}
{"Target gene": "Scox (GeneID 33711)", "dsRNA": "DRSC03117", "E2F firefly, rep 1": 1.27e5, "Renilla normaliser, rep 1": 4512}
{"Target gene": "CG2061 (GeneID 32042)", "dsRNA": "DRSC19348", "E2F firefly, rep 1": 8319, "Renilla normaliser, rep 1": 656}
{"Target gene": "CG12511 (GeneID 33797)", "dsRNA": "DRSC02171", "E2F firefly, rep 1": 1.56e5, "Renilla normaliser, rep 1": 5263}
{"Target gene": "CG15317 (GeneID 31898)", "dsRNA": "DRSC18005", "E2F firefly, rep 1": 1.25e5, "Renilla normaliser, rep 1": 6150}
{"Target gene": "Golgin245 (GeneID 37702)", "dsRNA": "DRSC04374", "E2F firefly, rep 1": 80864, "Renilla normaliser, rep 1": 3562}
{"Target gene": "CG4119 (GeneID 31481)", "dsRNA": "DRSC17741", "E2F firefly, rep 1": 7022, "Renilla normaliser, rep 1": 744}
{"Target gene": "CG11000 (GeneID 40721)", "dsRNA": "DRSC12158", "E2F firefly, rep 1": 1.38e5, "Renilla normaliser, rep 1": 6250}
{"Target gene": "Cortactin (GeneID 42491)", "dsRNA": "DRSC16612", "E2F firefly, rep 1": 65457, "Renilla normaliser, rep 1": 3372}
{"Target gene": "dtr (GeneID 318856)", "dsRNA": "DRSC01847", "E2F firefly, rep 1": 90084, "Renilla normaliser, rep 1": 3104}
{"Target gene": "tud (GeneID 37417)", "dsRNA": "DRSC04719", "E2F firefly, rep 1": 98894, "Renilla normaliser, rep 1": 4685}

Reformatted: entries from further up
Target gene | dsRNA | E2F firefly, rep 1 | Renilla normaliser, rep 1
CG11000 (GeneID 40721) | DRSC12158 | 1.38e5 | 6250
Cortactin (GeneID 42491) | DRSC16612 | 65457 | 3372
